Results deposited as PubChem BioAssay AID1053208 (Peter MacCallum Cancer Centre, 2014)
The whole screen tested about 17,000 reagents; below is an unselected part. Of all reagents, 788 (4.7%) were called active. 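Calls rest on z-score classes alone; an extra cut-off of viability at most 70% of control was not applied to them.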 Further read-outs or replicates are left out here. Reagent sequences are not shown.

Test: 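Genes whose silencing cuts survival of bone tumour cells only with doxorubicin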 (primary screen)
Cells: mouse osteosarcoma cells, early-passage culture from an engineered mouse model of fibroblastic bone tumour
Knock-down reagent: siRNA pool against mouse genes, 40 nM
Time to read-out: about 120 h (48 h before drug, then 72 h with drug)
Conditions: doxorubicin 100 nM for 72 h, roughly 30-40% inhibitory dose
Measurement: 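Viability read as ATP luminescence after 72 h of 100 nM doxorubicin or none, duplicate wells averaged, scaled to non-targeting siRNA, then expressed as robust z-scores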
Scale: viability z-score with doxorubicin: higher = more viable cells under doxorubicin; viability z-score without drug: higher = more viable cells with knock-down alone
Hit rule: 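Called active if knock-down leaves viability unchanged without drug (z within -2 to 2) but lowers it with doxorubicin (z at or under -2)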

Rbks (ribokinase)
- combined z-score class: no change with or without drug
- viability z-score with doxorubicin: 1.8
- viability z-score without drug: 0.67
- outcome: inactive

Klc4 (kinesin light chain 4)
- combined z-score class: low cell count with doxorubicin only
- viability z-score with doxorubicin: -2.36
- viability z-score without drug: 1.18
- outcome: active

Cpsf4l (cleavage and polyadenylation specific factor 4-like)
- combined z-score class: no change with or without drug
- viability z-score with doxorubicin: 0
- viability z-score without drug: 0.34
- outcome: inactive

Btbd3 (BTB domain containing 3)
- combined z-score class: no change with or without drug
- viability z-score with doxorubicin: 0
- viability z-score without drug: -0.34
- outcome: inactive

Ap3m2 (adaptor-related protein complex 3, mu 2 subunit)
- combined z-score class: no change with or without drug
- viability z-score with doxorubicin: -0.11
- viability z-score without drug: -0.17
- outcome: inactive

Sox10 (SRY (sex determining region Y)-box 10)
- combined z-score class: no change with or without drug
- viability z-score with doxorubicin: -0.67
- viability z-score without drug: 0
- outcome: inactive

Zc3h18 (zinc finger CCCH-type containing 18)
- combined z-score class: no change with or without drug
- viability z-score with doxorubicin: 0.79
- viability z-score without drug: 0.84
- outcome: inactive

Vdac2 (voltage-dependent anion channel 2)
- combined z-score class: low cell count with doxorubicin only
- viability z-score with doxorubicin: -4.5
- viability z-score without drug: -1.35
- outcome: active

Cpd (carboxypeptidase D)
- combined z-score class: no change with or without drug
- viability z-score with doxorubicin: 1.57
- viability z-score without drug: 0.17
- outcome: inactive

Uba2 (ubiquitin-like modifier activating enzyme 2)
- combined z-score class: no change with or without drug
- viability z-score with doxorubicin: -1.69
- viability z-score without drug: -1.18
- outcome: inactive

Il1rl1 (interleukin 1 receptor-like 1)
- combined z-score class: no change with or without drug
- viability z-score with doxorubicin: -0.56
- viability z-score without drug: -1.01
- outcome: inactive

Mboat2 (membrane bound O-acyltransferase domain containing 2)
- combined z-score class: no change with or without drug
- viability z-score with doxorubicin: 0
- viability z-score without drug: -0.51
- outcome: inactive

Ciao2a (cytosolic iron-sulfur assembly component 2A)
- combined z-score class: no change with or without drug
- viability z-score with doxorubicin: 0.22
- viability z-score without drug: 0.51
- outcome: inactive

Kptn (kaptin)
- combined z-score class: no change with or without drug
- viability z-score with doxorubicin: -0.22
- viability z-score without drug: -0.51
- outcome: inactive

Snrk (SNF related kinase)
- combined z-score class: high cell count with and without drug
- viability z-score with doxorubicin: 2.47
- viability z-score without drug: 2.53
- outcome: inactive

Ces2c (carboxylesterase 2C)
- combined z-score class: low cell count with doxorubicin only
- viability z-score with doxorubicin: -2.7
- viability z-score without drug: 0.51
- outcome: active

Fhl1 (four and a half LIM domains 1)
- combined z-score class: no change with or without drug
- viability z-score with doxorubicin: 0.34
- viability z-score without drug: 0.51
- outcome: inactive

Mettl6 (methyltransferase 6, methylcytidine)
- combined z-score class: no change with or without drug
- viability z-score with doxorubicin: 1.12
- viability z-score without drug: 1.85
- outcome: inactive

Acsbg1 (acyl-CoA synthetase bubblegum family member 1)
- combined z-score class: no change with or without drug
- viability z-score with doxorubicin: 0.79
- viability z-score without drug: 1.18
- outcome: inactive

Part of the list above, showing only “viability z-score with doxorubicin”.
Vdac2 (voltage-dependent anion channel 2)	-4.5
Cpd (carboxypeptidase D)	1.57
